Measured values: paper PMC9124971
These are yes or no findings as the source states them, for the method shown. In cells and extracts the contact can be indirect. For some of these results: Binding calls can cover weak binding; strength is not graded here.

The chains behind the UniProt entries cited, without tags or fusion partners. Where a name states a change or a piece, a line headed by the entry shows the natural chain unless it says otherwise.
UniProt P48432: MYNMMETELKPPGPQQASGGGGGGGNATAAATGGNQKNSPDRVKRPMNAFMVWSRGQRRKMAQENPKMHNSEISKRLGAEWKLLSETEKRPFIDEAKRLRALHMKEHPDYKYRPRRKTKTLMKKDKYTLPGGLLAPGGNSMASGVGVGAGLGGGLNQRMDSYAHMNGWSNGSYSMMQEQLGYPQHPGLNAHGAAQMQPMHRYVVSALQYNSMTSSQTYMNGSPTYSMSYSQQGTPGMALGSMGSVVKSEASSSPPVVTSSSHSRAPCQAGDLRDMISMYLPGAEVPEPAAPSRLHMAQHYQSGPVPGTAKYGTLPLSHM

Columns and labels:
[1] = target: FLAG-tagged SOX2 lacking the HMG DNA binding domain (F-SOX2-ΔHMG) (UniProt P48432); experiment: co-IP; HEK cells co-transfected with tagged constructs, harvested 24 h later; total cell extract in 20 mM Tris pH8, 137 mM NaCl, 10 mM EDTA, 1% NP40, 10% glycerol; antibodies against myc or FLAG 2 h at 4°C, protein G beads; Western blot
[2] = target: FLAG-tagged SOX2 lacking the transactivation domain (F-SOX2-ΔTAD); experiment: as above

binding [1]	binding [2]	Binder
no binding	binds	CUX1 879-1336 (domain or fragment, UniProt P39880 879-1336) WKEWPSAESPYSQSSELSLTGASRSETPQNSPLPSSPIVPMSKPTKPSVPPLTPEQYEVYMYQEVDTIELTRQVKEKLAKNGICQRIFGEKVLGLSQGSVSDMLSRPKPWSKLTQKGREPFIRMQLWLNGELGQGVLPVQGQQQGPVLHSVTSLQDPLQQGCVSSESTPKTSASCSPAPESPMSSSESVKSLTELVQQPCPPIEASKDSKPPEPSDPPASDSQPTTPLPLSGHSALSIQELVAMSPELDTYGITKRVKEVLTDNNLGQRLFGETILGLTQGSVSDLLARPKPWHKLSLKGREPFVRMQLWLNDPNNVEKLMDMKRMEKKAYMKRRHSSVSDSQPCEPPSVGTEYSQGASPQPQHQLKKPRVVLAPEEKEALKRAYQQKPYPSPKTIEDLATQLNLKTSTVINWFHNYRSRIRRELFIEEIQAGSQGQAGASDSPSARSGRAAPSSEGD
no binding	binds	CUX1 659-1505 (domain or fragment, UniProt P39880 659-1505) RIRASETGSDEAIKSILEQAKRELQVQKTAEPAQPSSASGSGNSDDAIRSILQQARREMEAQQAALDPALKQAPLSQSDITILTPKLLSTSPMPTVSSYPPLAISLKKPSAAPEAGASALPNPPALKKEAQDAPGLDPQGAADCAQGVLRQVKNEVGRSGAWKDHWWSAVQPERRNAASSEEAKAEETGGGKEKGSGGSGGGSQPRAERSQLQGPSSSEYWKEWPSAESPYSQSSELSLTGASRSETPQNSPLPSSPIVPMSKPTKPSVPPLTPEQYEVYMYQEVDTIELTRQVKEKLAKNGICQRIFGEKVLGLSQGSVSDMLSRPKPWSKLTQKGREPFIRMQLWLNGELGQGVLPVQGQQQGPVLHSVTSLQDPLQQGCVSSESTPKTSASCSPAPESPMSSSESVKSLTELVQQPCPPIEASKDSKPPEPSDPPASDSQPTTPLPLSGHSALSIQELVAMSPELDTYGITKRVKEVLTDNNLGQRLFGETILGLTQGSVSDLLARPKPWHKLSLKGREPFVRMQLWLNDPNNVEKLMDMKRMEKKAYMKRRHSSVSDSQPCEPPSVGTEYSQGASPQPQHQLKKPRVVLAPEEKEALKRAYQQKPYPSPKTIEDLATQLNLKTSTVINWFHNYRSRIRRELFIEEIQAGSQGQAGASDSPSARSGRAAPSSEGDSCDGVEATEGPGSADTEEPKSQGEAEREEVPRPAEQTEPPPSGTPGPDDARDDDHEGGPVEGPGPLPSPASATATAAPAAPEDAATSAAAAPGEGPAAPSSAPPPSNSSSSSAPRRPSSLQSLFGLPEAAGARDSRDNPLRKKKAANLNSIIHRLEKAASREEPIEWEF
